# Inconclusive means that the source gave no clear call. Such entries were picked first, then a sample of the others. Potencies beside an inconclusive call are fits to weak or partial responses and may not hold up. Active and inactive are the calls of the source. The call rests on the fitted dose curve; in most records, active means well fitted cell-killing curve with a large enough effect; inconclusive means small, poorly fitted or top-dose-only effect, or effect the other way; inactive means no such curve, though single readings can be large or run the other way.
# System: SKOV3
# Assay: Confirmatory qHTS for gynecologic anti-cancer compounds from libraries of approved drugs and bioactive compounds; further: nearly all actives have a fitted effect of over 55% in size
# Conditions: gynecologic cancer cell panel viability, ATPlite luminescence, 48 h; series mostly up to 57.6 µM; activity change, negative = viability loss: at the top concentration
# Outline: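 Seeding 1,000 cells per well preceded overnight (16 h) attachment, after which 48 h drug treatment across 57.5 uM–0.977 nM (11 points) was applied. Remaining cellular ATP, detected by ATPlite luminescence, defined IC50.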
# On the % scale 0 is the no-effect control and ±100 the full control effect; potency means the concentration at half of the fitted maximal effect.
Structure (SMILES),Potency,"activity change, negative = viability loss"
Cc1nc(NC(=O)N2CCCC2C(N)=O)sc1-c1csc(C(C)(C)C)n1 (stereo not given),"inconclusive: 0.0039 µM [rising, full curve, poor fit]",
Cc1ccc(-n2[nH]c(C)c(N=Nc3cccc(-c4cccc(C(=O)O)c4)c3O)c2=O)cc1C,"inconclusive: 12.2 µM [cytotoxic, single point]",
Cc1cnc(Nc2ccc(F)cc2Cl)nc1-c1c[nH]c(C(=O)NC(CO)c2cccc(Cl)c2)c1 (stereo not given),,inactive: -35.9%
O=c1[nH]c(=O)n([C@H]2C[C@H](O)[C@@H](CO)O2)cc1Br,,inactive: 4%
CCS(=O)(=O)N1CCN(c2ccc(Nc3ncc(C(N)=O)c(NC4CC4)n3)cc2)CC1,active: 15.3 µM,
CN1CCCC(n2nc(Cc3ccc(Cl)cc3)c3ccccc3c2=O)CC1 (stereo not given),"inconclusive: 0.0034 µM [cytotoxic, single point]",
CN(Cc1cnc2nc(N)nc(N)c2n1)c1ccc(C(=O)N[C@@H](CCC(=O)O)C(=O)O)cc1,"inconclusive: 0.0193 µM [rising, full curve, poor fit]",
C[C@]12CCC(=O)C=C1CC[C@@H]1[C@@H]2[C@@H](O)C[C@@]2(C)[C@H]1CC[C@]2(O)C(=O)CO,,inactive: -15.7%
Nc1ccc(C(=O)Nc2cccc(-c3nc(N4CCOCC4)c4oc5ncccc5c4n3)c2)cn1,"inconclusive: 13.7 µM [cytotoxic, full curve, poor fit]",
C=CC(=O)Nc1cccc(Oc2nc(Nc3ccc(N4CCN(C)CC4)cc3)ncc2Cl)c1,active: 1.72 µM,
CS(=O)(=O)c1ccc(-c2cnc(N)c(C(=O)Nc3ccccc3)n2)cc1,"inconclusive: 21.7 µM [cytotoxic, single point]",
CN(C)C(CCOc1cccc2ccccc12)c1ccccc1 (stereo not given),,inactive: -1.7%
CCN(CC)CCNC(=O)c1c(C)[nH]c(/C=C2\C(=O)Nc3ccc(F)cc32)c1C,active: 15.8 µM,
CC(C)(C)C(=O)OCOP(=O)(COCCn1cnc2c(N)ncnc21)OCOC(=O)C(C)(C)C,"inconclusive: 13.7 µM [cytotoxic, single point]",
CCN(CC)CCCC(C)Nc1c2ccc(Cl)cc2nc2ccc(OC)cc12 (stereo not given),"inconclusive: 43.2 µM [cytotoxic, single point]",
COc1ccc(-c2nc3ccc(C4=NNC(=O)CC4C)cc3[nH]2)cc1 (stereo not given),"inconclusive: 10.9 µM [cytotoxic, partial curve, poor fit]",
NC1(c2ccc(-c3nc4ccn5c(=O)[nH]nc5c4cc3-c3ccccc3)cc2)CCC1,"inconclusive: 15.3 µM [cytotoxic, partial curve]",
NS(=O)(=O)c1ccc(Nc2nc(OCC3CCCCC3)c3[nH]cnc3n2)cc1,,inactive: -0.308%
Cc1ccc(NC(=O)c2ccc(CN3CCN(C)CC3)cc2)cc1Nc1nccc(-c2cccnc2)n1,,inactive: -17.9%
CC(Oc1cc(-n2cnc3ccc(CN4CCN(C)CC4)cc32)sc1C(N)=O)c1ccccc1C(F)(F)F (stereo not given),active: 19.3 µM,
Cc1ccc(C(N)=O)cc1Nc1nccc(-c2cn(C(C)C)c3cnccc23)n1,"inconclusive: 8.63 µM [cytotoxic, full curve]",
CC(C)Nc1cc(-c2c[nH]c(C(=O)N[C@H](CO)c3cccc(Cl)c3)c2)c(Cl)cn1,,inactive: 31.2%
CCN(CC)CCOc1ccc(/C(=C(\Cl)c2ccccc2)c2ccccc2)cc1,"inconclusive: 251 µM [cytotoxic, partial curve, poor fit]",
Cc1cc(Nc2cc(N3CCN(C)CC3)nc(/C=C/c3ccccc3)n2)n[nH]1,"inconclusive: 0.0049 µM [rising, full curve, poor fit]",
CCOc1ccc(Nc2nc(-c3c(C)nc4ccccn34)cs2)cc1,,inactive: -19.2%
CCCC(=O)O[C@]1(C(=O)CCl)[C@@H](C)C[C@H]2[C@@H]3CCC4=CC(=O)C=C[C@]4(C)[C@@]3(F)C(=O)C[C@@]21C,,inactive: -11.2%
CCCCN(CCCC)C(=O)CN1C[C@H](c2ccc3c(c2)OCO3)[C@@H](C(=O)O)[C@@H]1c1ccc(OC)cc1,,inactive: -4.83%
CN1CCN(c2cccc(Nc3nc4c(-c5ccc(S(C)(=O)=O)cc5)cccn4n3)c2)CC1,,inactive: -10.2%
CCc1c2c(nc3ccc(O)cc13)-c1cc3c(c(=O)n1C2)COC(=O)[C@]3(O)CC,active: 0.0243 µM,
CN(C)CC/C=C1\c2ccccc2COc2ccccc21,,inactive: 7.32%

# 2 entries picked at random from those above, as already listed:
Structure (SMILES),Potency,"activity change, negative = viability loss"
CCN(CC)CCOc1ccc(/C(=C(\Cl)c2ccccc2)c2ccccc2)cc1,"inconclusive: 251 µM [cytotoxic, partial curve, poor fit]",
Cc1ccc(NC(=O)c2ccc(CN3CCN(C)CC3)cc2)cc1Nc1nccc(-c2cccnc2)n1,,inactive: -17.9%
